Here are results for three molecules from publication PMC12430662.

For test [1], the target named is T1, ABI5-cLUC (Arabidopsis thaliana) (UniProt Q9SJN0).
T1 sequence: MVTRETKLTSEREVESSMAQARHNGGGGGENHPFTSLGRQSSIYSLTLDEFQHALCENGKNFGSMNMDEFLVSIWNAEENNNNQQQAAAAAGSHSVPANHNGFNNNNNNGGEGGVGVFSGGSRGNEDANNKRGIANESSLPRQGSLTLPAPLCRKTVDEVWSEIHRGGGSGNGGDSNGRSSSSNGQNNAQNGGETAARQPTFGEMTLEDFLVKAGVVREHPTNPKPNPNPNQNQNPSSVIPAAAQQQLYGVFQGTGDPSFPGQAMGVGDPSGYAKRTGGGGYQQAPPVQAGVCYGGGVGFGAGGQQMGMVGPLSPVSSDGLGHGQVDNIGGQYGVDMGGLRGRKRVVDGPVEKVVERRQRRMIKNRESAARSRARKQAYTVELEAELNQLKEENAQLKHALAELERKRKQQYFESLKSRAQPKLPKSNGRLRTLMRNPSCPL
In words: split reporter; luciferase complementation imaging; nLUC and cLUC fusions co-expressed in N. benthamiana leaves by Agrobacterium infiltration; after 2 days 1 mM luciferin sprayed, 5-10 min dark, CCD imaging.

Test [2] concerns the target T2, GST-ABI5 (Arabidopsis thaliana) (UniProt Q9SJN0).
T2 sequence: T1 sequence
The test is described as follows: pull-down; 2 ug MBP-CPK2-His incubated with 1.5 ug ABI5-GST (or GST), captured on GST beads at 4 C for 1 h, washed four times with PBS, eluted with 10 mM reduced glutathione; immunoblot with anti-His and anti-GST; both purified. On the technique in general: Immunoblotting shows a protein as a band on a membrane.

Test [3] has as its target T3, ABI5-GFP (Arabidopsis thaliana) (UniProt Q9SJN0).
T3 sequence: T1 sequence
The test is described as follows: co-IP; CPK2-HA co-expressed with ABI5-GFP or GFP in N. benthamiana leaves; extract in IP buffer (50 mM Tris-HCl pH 7.5, 150 mM NaCl, 0.5 mM EDTA, 0.5% Triton X-100) incubated with anti-GFP magnetic beads overnight at 4 C; immunoblot with anti-GFP and anti-HA.

Results are given in words; binding and its absence hold for the method and conditions named. For part of these data: Binding seen in cells or lysates may run through a third protein. Some results given as binding are weak or reduced against the parent protein; the word gives no strength. Where a sequence is shown, tags or fusion partners need not be part of it.

B1: CPK2-nLUC (enzyme, UniProt Q38870 1-646)
chain: MGNACVGPNISGNGFLQTVTAAMWRPRIGAEQASSSSHGNGQVSKEAASEPATDQVQNKPPEPITMPSSKTNPETKLKPDLEIQPEEKKEKVLAEETKQKVVPEESKQEVPPEESKREVVVQPESAKPETKSESKPETTKPETTSETKPETKAEPQKPKHMRRVSSAGLRTESVLQRKTENFKEFYSLGRKLGQGQFGTTFLCLEKGTGNEYACKSISKRKLLTDEDVEDVRREIQIMHHLAGHPNVISIKGAYEDVVAVHLVMELCSGGELFDRIIQRGHYTERKAAELARTIVGVLEACHSLGVMHRDLKPENFLFVSREEDSLLKTIDFGLSMFFKPDEVFTDVVGSPYYVAPEVLRKRYGPESDVWSAGVIVYILLSGVPPFWAETEQGIFEQVLHGDLDFSSDPWPSISESAKDLVRKMLVRDPKRRLTAHQVLCHPWVQIDGVAPDKPLDSAVLSRMKQFSAMNKFKKMALRVIAESLSEEEIAGLKQMFKMIDADNSGQITFEELKAGLKRVGANLKESEILDLMQAADVDNSGTIDYKEFIAATLHLNKIEREDHLFAAFSYFDKDESGFITPDELQQACEEFGVEDARIEEMMRDVDQDKDGRIDYNEFVAMMQKGSIMGGPVKMGLENSISISLKH
As to B1, the binding result in test [1] is “binds”.

B2: MBP-CPK2-His (enzyme, UniProt Q38870 1-646)
chain: B1 chain
For the molecule B2, the binding entry in test [2] was “binds”.

B3: CPK2-HA (enzyme, UniProt Q38870 1-646)
chain: B1 chain
In the case of B3, the binding result in test [3] is “binds”.
